Results from article PMC5958119.
Results are given in words; binding and its absence hold for the method and conditions named. In cells and extracts the contact can be indirect. Some results given as binding are weak or reduced against the parent protein; the word gives no strength.

Chains of the proteins cited; added tags and fusions are not shown. Lines headed by an entry give the natural chain unless they say otherwise; changes in a name come on top.
UniProt Q96QB1: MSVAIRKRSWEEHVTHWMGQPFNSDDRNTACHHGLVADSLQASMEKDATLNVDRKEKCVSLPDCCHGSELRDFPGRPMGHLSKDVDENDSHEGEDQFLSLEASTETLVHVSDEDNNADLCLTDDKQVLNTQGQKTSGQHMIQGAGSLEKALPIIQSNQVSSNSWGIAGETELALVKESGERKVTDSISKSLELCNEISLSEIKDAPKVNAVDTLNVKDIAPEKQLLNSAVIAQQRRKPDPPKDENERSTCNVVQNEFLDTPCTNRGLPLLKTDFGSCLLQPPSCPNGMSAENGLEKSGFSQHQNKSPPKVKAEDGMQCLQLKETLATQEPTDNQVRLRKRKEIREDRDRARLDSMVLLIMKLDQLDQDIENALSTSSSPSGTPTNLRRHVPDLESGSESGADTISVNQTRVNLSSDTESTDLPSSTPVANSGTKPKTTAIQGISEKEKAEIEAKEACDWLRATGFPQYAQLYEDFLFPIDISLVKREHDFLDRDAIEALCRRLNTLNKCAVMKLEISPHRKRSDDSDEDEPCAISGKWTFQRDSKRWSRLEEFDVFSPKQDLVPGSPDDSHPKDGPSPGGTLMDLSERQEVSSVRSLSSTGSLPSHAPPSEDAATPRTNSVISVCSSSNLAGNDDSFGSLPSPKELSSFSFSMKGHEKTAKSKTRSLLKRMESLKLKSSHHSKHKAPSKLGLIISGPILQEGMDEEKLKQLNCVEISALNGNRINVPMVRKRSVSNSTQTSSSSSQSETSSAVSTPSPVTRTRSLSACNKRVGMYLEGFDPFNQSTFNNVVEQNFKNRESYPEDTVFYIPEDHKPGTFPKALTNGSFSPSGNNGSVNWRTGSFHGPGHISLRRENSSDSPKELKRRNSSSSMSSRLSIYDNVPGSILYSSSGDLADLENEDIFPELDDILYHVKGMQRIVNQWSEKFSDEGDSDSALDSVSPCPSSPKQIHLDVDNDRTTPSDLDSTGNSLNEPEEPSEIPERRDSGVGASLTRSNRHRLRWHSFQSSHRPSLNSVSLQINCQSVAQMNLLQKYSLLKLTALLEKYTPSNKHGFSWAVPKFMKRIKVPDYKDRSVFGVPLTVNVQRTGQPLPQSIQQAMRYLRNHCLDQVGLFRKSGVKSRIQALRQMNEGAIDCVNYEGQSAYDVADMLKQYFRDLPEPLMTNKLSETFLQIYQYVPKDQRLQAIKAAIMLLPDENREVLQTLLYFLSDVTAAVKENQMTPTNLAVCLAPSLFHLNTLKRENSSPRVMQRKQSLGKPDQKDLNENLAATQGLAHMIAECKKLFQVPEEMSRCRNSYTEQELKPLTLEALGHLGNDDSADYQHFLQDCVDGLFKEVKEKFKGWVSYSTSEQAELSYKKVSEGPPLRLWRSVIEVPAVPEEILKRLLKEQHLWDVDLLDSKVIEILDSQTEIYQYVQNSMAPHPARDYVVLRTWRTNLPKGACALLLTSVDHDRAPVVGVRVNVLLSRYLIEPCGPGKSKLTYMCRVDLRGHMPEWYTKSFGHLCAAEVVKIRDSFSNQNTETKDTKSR
UniProt O88382: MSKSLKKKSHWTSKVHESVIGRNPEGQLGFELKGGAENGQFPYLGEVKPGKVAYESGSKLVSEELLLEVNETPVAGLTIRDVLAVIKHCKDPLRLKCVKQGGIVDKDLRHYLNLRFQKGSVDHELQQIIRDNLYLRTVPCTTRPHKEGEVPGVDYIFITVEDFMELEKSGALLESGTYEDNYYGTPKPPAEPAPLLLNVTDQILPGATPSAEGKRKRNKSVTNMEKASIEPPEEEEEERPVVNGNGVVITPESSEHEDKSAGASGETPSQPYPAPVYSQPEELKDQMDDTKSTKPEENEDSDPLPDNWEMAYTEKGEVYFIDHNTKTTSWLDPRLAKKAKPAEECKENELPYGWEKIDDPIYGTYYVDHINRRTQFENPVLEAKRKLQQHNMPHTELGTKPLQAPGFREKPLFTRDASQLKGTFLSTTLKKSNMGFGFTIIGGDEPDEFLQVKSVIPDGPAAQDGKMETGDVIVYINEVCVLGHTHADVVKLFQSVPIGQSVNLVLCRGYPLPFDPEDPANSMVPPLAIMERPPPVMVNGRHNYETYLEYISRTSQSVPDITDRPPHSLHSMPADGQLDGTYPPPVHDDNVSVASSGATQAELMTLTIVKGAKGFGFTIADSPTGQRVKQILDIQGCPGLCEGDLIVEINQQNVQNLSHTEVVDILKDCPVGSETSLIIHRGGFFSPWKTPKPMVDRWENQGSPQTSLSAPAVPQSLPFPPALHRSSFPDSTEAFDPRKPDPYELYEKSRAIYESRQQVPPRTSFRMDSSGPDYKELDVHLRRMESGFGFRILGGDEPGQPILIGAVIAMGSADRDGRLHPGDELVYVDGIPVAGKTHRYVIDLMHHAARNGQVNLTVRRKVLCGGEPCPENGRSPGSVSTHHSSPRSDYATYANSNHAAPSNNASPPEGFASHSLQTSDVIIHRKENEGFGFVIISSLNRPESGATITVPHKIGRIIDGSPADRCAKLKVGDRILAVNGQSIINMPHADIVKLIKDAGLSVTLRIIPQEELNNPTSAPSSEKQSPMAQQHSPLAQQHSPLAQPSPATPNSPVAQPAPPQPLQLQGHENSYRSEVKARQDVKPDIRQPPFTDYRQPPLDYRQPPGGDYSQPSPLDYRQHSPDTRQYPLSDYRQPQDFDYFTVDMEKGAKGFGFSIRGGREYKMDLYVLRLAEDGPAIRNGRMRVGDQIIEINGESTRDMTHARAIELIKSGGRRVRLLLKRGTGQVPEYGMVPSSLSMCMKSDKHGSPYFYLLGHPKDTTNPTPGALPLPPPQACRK

How the values were obtained:
[1] = target: T1, TNS2 mutant p.Arg292Gln (not stated (human or mouse cDNA cloned)) (UniProt Q63HR2); experiment: co-IP; co-overexpression in HEK293T cells; lysates pre-cleared with protein G or A beads, antibody overnight at 4 °C in lysis buffer with protease inhibitors, protein G or A beads (GFP-Trap agarose for GFP fusions), washed four times, immunoblot; confirmatory co-IPs for several pairs; DLC1 with CAV1 also reciprocal in cells pre- and post-treated with 100 uM dexamethasone, results not altered
T1 sequence: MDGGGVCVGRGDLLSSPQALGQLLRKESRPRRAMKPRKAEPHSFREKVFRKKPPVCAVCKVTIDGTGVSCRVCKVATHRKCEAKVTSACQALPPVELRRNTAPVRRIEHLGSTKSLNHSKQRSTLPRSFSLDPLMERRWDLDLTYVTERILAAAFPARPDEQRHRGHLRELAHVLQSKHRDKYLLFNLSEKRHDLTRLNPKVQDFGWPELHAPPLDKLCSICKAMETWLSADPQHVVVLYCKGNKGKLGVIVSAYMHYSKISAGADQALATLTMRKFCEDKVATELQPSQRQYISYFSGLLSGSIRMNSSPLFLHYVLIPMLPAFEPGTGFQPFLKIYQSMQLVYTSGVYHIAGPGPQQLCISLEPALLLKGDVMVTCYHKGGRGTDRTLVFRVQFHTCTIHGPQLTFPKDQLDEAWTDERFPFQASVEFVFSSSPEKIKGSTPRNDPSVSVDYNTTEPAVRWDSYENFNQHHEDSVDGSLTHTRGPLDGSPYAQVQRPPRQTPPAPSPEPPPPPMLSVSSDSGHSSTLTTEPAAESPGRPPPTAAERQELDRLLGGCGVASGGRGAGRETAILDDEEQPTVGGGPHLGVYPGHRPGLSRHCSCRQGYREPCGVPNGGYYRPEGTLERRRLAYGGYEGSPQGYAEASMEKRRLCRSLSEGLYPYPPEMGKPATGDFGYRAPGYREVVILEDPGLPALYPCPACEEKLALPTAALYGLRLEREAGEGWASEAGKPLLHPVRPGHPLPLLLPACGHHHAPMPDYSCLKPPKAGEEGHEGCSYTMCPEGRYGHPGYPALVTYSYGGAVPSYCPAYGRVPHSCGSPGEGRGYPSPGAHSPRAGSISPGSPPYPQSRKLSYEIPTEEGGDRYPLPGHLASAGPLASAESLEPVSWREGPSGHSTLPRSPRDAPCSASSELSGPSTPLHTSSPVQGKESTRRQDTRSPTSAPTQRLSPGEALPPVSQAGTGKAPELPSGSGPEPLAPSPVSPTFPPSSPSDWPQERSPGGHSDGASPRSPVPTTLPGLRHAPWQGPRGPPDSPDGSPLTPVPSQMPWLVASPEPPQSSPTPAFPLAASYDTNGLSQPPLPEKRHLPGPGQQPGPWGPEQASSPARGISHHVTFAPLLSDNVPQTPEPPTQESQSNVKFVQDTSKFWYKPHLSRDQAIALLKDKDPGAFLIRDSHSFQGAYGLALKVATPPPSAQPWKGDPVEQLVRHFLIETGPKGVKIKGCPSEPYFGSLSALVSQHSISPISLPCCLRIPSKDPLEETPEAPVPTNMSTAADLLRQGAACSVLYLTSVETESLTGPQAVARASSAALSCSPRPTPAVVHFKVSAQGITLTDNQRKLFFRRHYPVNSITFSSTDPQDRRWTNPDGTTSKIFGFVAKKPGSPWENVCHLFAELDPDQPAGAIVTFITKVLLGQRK

[2] = target: DLC1 (deleted in liver cancer 1) wild type (human) (UniProt Q96QB1); experiment: as above

MAGI2 wild type (rat Magi2, S-SCAM, full-length cDNA) (from UniProt O88382 1-1277)
binding [1]: binds | binding [2]: binds
